According to PMC9638919, “DAZL regulates proliferation of human primordial germ cells by direct binding to precursor miRNAs and enhances DICER processing activity”:
For at least one entry, the source does not settle the construct or the ends of the probe. For part of these data: No signal at the amounts used counts as a negative. For part of these data: At least one verdict was read from the data and is not stated in words by the source. For part of these data: Protein sequences can lack the tags named with them.

Key:
[1] = system: GST; test: EMSA; conditions: 10 mM HEPES pH 7.4, 50 mM KCl, 1 mM EDTA, 0.05% Triton X-100, 5% glycerol, 0.01 mg/ml BSA, 1 mM DTT; 10 nM FAM-RNA, 40 min; temperature not stated; recombinant protein; label: 5'-FAM
[2] = target: T1, GST-DAZL (UniProt Q92904); test: EMSA; conditions: not significantly affected; 10 mM HEPES pH 7.4, 50 mM KCl, 1 mM EDTA, 0.05% Triton X-100, 5% glycerol, 0.01 mg/ml BSA, 1 mM DTT; 10 nM FAM-RNA, 40 min; temperature not stated; recombinant protein; protein details: N-terminal GST; label: 5'-FAM
T1 sequence (looked up, limits assumed): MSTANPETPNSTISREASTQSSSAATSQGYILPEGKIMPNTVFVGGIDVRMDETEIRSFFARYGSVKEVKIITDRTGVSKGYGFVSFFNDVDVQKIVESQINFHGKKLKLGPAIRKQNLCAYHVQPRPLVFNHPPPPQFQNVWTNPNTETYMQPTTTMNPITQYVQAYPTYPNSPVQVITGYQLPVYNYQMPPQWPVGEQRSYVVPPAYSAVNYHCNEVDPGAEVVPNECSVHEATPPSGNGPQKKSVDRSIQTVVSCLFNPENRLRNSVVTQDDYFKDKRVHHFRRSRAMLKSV

Sequence | binding result [1] | binding result [2]
GCAUCCGGGUUGAGGUAGUAGGUUGUAUGGUUUAGAGUUACACCCUGGGAGUUAACUGUACAACCUUCUAGCUUUCCUUGGAGC [pre-let-7c] | no binding | 
UAGAGUUACACCCUGGGAGUUUA [pre-let-7c loop, A after second GUU to U] |  | binds
UAGAGUUUCACCCUGGGAGUUAA [pre-let-7c loop, A after first GUU to U] |  | binds
